According to the supplement of paper PMC5355238:
Counter-ions that a name gives are not always drawn. This is one part of the list. Most values lie at the level of the controls, where differences are scatter.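 Using flow cytometry, the assay measures the median γH2AX antibody signal in S-phase Reh cells (a human leukemia line). Each score is the number of standard deviations from the median difference of paired plate sets. Candidate hits scored above 2.5; compounds scoring below -2 lowered MK1775-induced damage.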

Tested on: Reh
Assay: Z' of S-phase gammaH2AX difference (drug + MK1775 minus drug alone) (Z-score); higher = stronger synergistic S-phase DNA damage with MK1775
Conditions: MK1775 concentration 400 nM; first compound 10 µM; 4 h

Compound	Z' of S-phase gammaH2AX difference (Z-score)
CNNCc1ccc(C(=O)NC(C)C)cc1 [Procarbazine hydrochloride (Matulane)] + C=CCn1c(=O)c2cnc(Nc3ccc(N4CCN(C)CC4)cc3)nc2n1-c1cccc(C(C)(C)O)n1 [MK1775]	inactive: 0.231
CC(=O)Oc1cc(C(C)C)c(OCCN(C)C)cc1C [Moxisylyte hydrochloride] + C=CCn1c(=O)c2cnc(Nc3ccc(N4CCN(C)CC4)cc3)nc2n1-c1cccc(C(C)(C)O)n1 [MK1775]	inactive: 0.0825
CC(c1cc2ccccc2s1)N(O)C(N)=O (centres undefined) [Zileuton] + C=CCn1c(=O)c2cnc(Nc3ccc(N4CCN(C)CC4)cc3)nc2n1-c1cccc(C(C)(C)O)n1 [MK1775]	inactive: 0.162
CC1=C(/C=C/C(C)=C/C=C/C(C)=C/C(=O)Nc2ccc(O)cc2)C(C)(C)CCC1 [Fenretinide] + C=CCn1c(=O)c2cnc(Nc3ccc(N4CCN(C)CC4)cc3)nc2n1-c1cccc(C(C)(C)O)n1 [MK1775]	inactive: -0.319
CC1=C(/C=C/C(C)=C/C=C/C(C)=C/C(=O)Nc2ccc(O)cc2)C(C)(C)CCC1 [Retinoic acid p-hydroxyanilide] + C=CCn1c(=O)c2cnc(Nc3ccc(N4CCN(C)CC4)cc3)nc2n1-c1cccc(C(C)(C)O)n1 [MK1775]	inactive: -0.585
COc1cc2c(cc1OC)[C@@H](c1ccccc1)CN(C)CC2 + C=CCn1c(=O)c2cnc(Nc3ccc(N4CCN(C)CC4)cc3)nc2n1-c1cccc(C(C)(C)O)n1 [MK1775]	inactive: -0.2
Cn1cc(C(=O)OCC2CCN(CCNS(C)(=O)=O)CC2)c2ccccc21 + C=CCn1c(=O)c2cnc(Nc3ccc(N4CCN(C)CC4)cc3)nc2n1-c1cccc(C(C)(C)O)n1 [MK1775]	inactive: -0.147
CNCC[C@H](Oc1ccc(C(F)(F)F)cc1)c1ccccc1 [S-(+)-Fluoxetine hydrochloride] + C=CCn1c(=O)c2cnc(Nc3ccc(N4CCN(C)CC4)cc3)nc2n1-c1cccc(C(C)(C)O)n1 [MK1775]	inactive: -0.785
CC(=O)OCC(=O)[C@@]1(O)CC[C@H]2[C@@H]3CCC4=CC(=O)CC[C@]4(C)[C@H]3C(=O)C[C@@]21C [Cortisone 21-acetate] + C=CCn1c(=O)c2cnc(Nc3ccc(N4CCN(C)CC4)cc3)nc2n1-c1cccc(C(C)(C)O)n1 [MK1775]	inactive: -0.02
O=C1c2ccccc2C(=O)c2c(NCCc3ccc(O)cc3)ccc(NCCc3ccc(O)cc3)c21 + C=CCn1c(=O)c2cnc(Nc3ccc(N4CCN(C)CC4)cc3)nc2n1-c1cccc(C(C)(C)O)n1 [MK1775]	inactive: -0.0673
O=C1c2c(O)cc(O)cc2OC(c2ccc(O)c(O)c2)C1O (centres undefined) [(?)-Taxifolin] + C=CCn1c(=O)c2cnc(Nc3ccc(N4CCN(C)CC4)cc3)nc2n1-c1cccc(C(C)(C)O)n1 [MK1775]	inactive: -1.33
C[C@H]1C[C@H]2[C@@H]3CCC4=CC(=O)C=C[C@]4(C)[C@@]3(Cl)[C@@H](O)C[C@]2(C)[C@@]1(O)C(=O)CO [Beclomethasone] + C=CCn1c(=O)c2cnc(Nc3ccc(N4CCN(C)CC4)cc3)nc2n1-c1cccc(C(C)(C)O)n1 [MK1775]	inactive: -0.0869
COc1cc2nc(N3CCN(C(=O)C4CCCO4)CC3)nc(N)c2cc1OC (centres undefined) [Terazosin hydrochloride] + C=CCn1c(=O)c2cnc(Nc3ccc(N4CCN(C)CC4)cc3)nc2n1-c1cccc(C(C)(C)O)n1 [MK1775]	inactive: 0.393
Oc1ccc(O)cc1 [Hydroquinone] + C=CCn1c(=O)c2cnc(Nc3ccc(N4CCN(C)CC4)cc3)nc2n1-c1cccc(C(C)(C)O)n1 [MK1775]	inactive: -0.969
CN1CCN(c2cccc(Nc3nc4c(-c5ccc(S(C)(=O)=O)cc5)cccn4n3)c2)CC1 + C=CCn1c(=O)c2cnc(Nc3ccc(N4CCN(C)CC4)cc3)nc2n1-c1cccc(C(C)(C)O)n1 [MK1775]	inactive: 0.00517
Cc1nc(N=Nc2ccc(C(=O)O)cc2)c(COP(=O)(O)O)c(C=O)c1O + C=CCn1c(=O)c2cnc(Nc3ccc(N4CCN(C)CC4)cc3)nc2n1-c1cccc(C(C)(C)O)n1 [MK1775]	inactive: -0.466
CNCCC=C1c2ccccc2CCc2ccccc21 [Nortriptyline hydrochloride] + C=CCn1c(=O)c2cnc(Nc3ccc(N4CCN(C)CC4)cc3)nc2n1-c1cccc(C(C)(C)O)n1 [MK1775]	inactive: -0.267

Three entries from above, with each value named.
CC(=O)Oc1cc(C(C)C)c(OCCN(C)C)cc1C [Moxisylyte hydrochloride] + C=CCn1c(=O)c2cnc(Nc3ccc(N4CCN(C)CC4)cc3)nc2n1-c1cccc(C(C)(C)O)n1 [MK1775]
  Z' of S-phase gammaH2AX difference (Z-score): inactive: 0.0825
CC(c1cc2ccccc2s1)N(O)C(N)=O (centres undefined) [Zileuton] + C=CCn1c(=O)c2cnc(Nc3ccc(N4CCN(C)CC4)cc3)nc2n1-c1cccc(C(C)(C)O)n1 [MK1775]
  Z' of S-phase gammaH2AX difference (Z-score): inactive: 0.162
CC1=C(/C=C/C(C)=C/C=C/C(C)=C/C(=O)Nc2ccc(O)cc2)C(C)(C)CCC1 [Fenretinide] + C=CCn1c(=O)c2cnc(Nc3ccc(N4CCN(C)CC4)cc3)nc2n1-c1cccc(C(C)(C)O)n1 [MK1775]
  Z' of S-phase gammaH2AX difference (Z-score): inactive: -0.319

Remaining list, next part.

Compound	Z' of S-phase gammaH2AX difference (Z-score)
CCc1c2c(nc3ccc(OC(=O)N4CCC(N5CCCCC5)CC4)cc13)-c1cc3c(c(=O)n1C2)COC(=O)[C@]3(O)CC [Irinotecan HCl Trihydrate (Campto)] + C=CCn1c(=O)c2cnc(Nc3ccc(N4CCN(C)CC4)cc3)nc2n1-c1cccc(C(C)(C)O)n1 [MK1775]	active: 6.5
Cc1ccc(/C(=C\CN2CCCC2)c2ccccn2)cc1 [Triprolidine hydrochloride] + C=CCn1c(=O)c2cnc(Nc3ccc(N4CCN(C)CC4)cc3)nc2n1-c1cccc(C(C)(C)O)n1 [MK1775]	inactive: -0.27
O=c1onc2n1-c1cc(Br)ccc1OC2 + C=CCn1c(=O)c2cnc(Nc3ccc(N4CCN(C)CC4)cc3)nc2n1-c1cccc(C(C)(C)O)n1 [MK1775]	inactive: 0.32
CCC[C@H](NC(=O)/C(C#N)=C/c1cccc(Br)n1)c1ccccc1 + C=CCn1c(=O)c2cnc(Nc3ccc(N4CCN(C)CC4)cc3)nc2n1-c1cccc(C(C)(C)O)n1 [MK1775]	inactive: -0.39
Nc1ncnc2c1ncn2[C@@H]1O[C@H](COP(=O)(O)CP(=O)(O)OP(=O)(O)O)[C@H](O)C1O (stereo partly drawn) [alpha,beta-Methylene adenosine 5'-triphosphate dilithium] + C=CCn1c(=O)c2cnc(Nc3ccc(N4CCN(C)CC4)cc3)nc2n1-c1cccc(C(C)(C)O)n1 [MK1775]	inactive: 0.00485
CCOc1cc2ncc(C#N)c(Nc3ccc(OCc4ccccn4)c(Cl)c3)c2cc1NC(=O)/C=C/CN(C)C [Neratinib (HKI-272)] + C=CCn1c(=O)c2cnc(Nc3ccc(N4CCN(C)CC4)cc3)nc2n1-c1cccc(C(C)(C)O)n1 [MK1775]	inactive: 0.00222
NC(=O)c1ncn([C@@H]2O[C@H](CO)[C@@H](O)[C@H]2O)c1O [Mizoribine] + C=CCn1c(=O)c2cnc(Nc3ccc(N4CCN(C)CC4)cc3)nc2n1-c1cccc(C(C)(C)O)n1 [MK1775]	inactive: -0.864
Cc1ccc(C(=O)Nc2ccc(S(=O)(=O)O)c3cc(S(=O)(=O)O)cc(S(=O)(=O)O)c23)cc1NC(=O)c1cccc(NC(=O)Nc2cccc(C(=O)Nc3cc(C(=O)Nc4ccc(S(=O)(=O)O)c5cc(S(=O)(=O)O)cc(S(=O)(=O)O)c45)ccc3C)c2)c1 [Suramin hexasodium] + C=CCn1c(=O)c2cnc(Nc3ccc(N4CCN(C)CC4)cc3)nc2n1-c1cccc(C(C)(C)O)n1 [MK1775]	inactive: 0.319
N#CC(c1ccnc(NCCc2cccnc2)n1)c1nc2ccccc2s1 (centres undefined) [JNK Inhibitor V] + C=CCn1c(=O)c2cnc(Nc3ccc(N4CCN(C)CC4)cc3)nc2n1-c1cccc(C(C)(C)O)n1 [MK1775]	inactive: -0.282
CN(N=O)C(=O)N[C@@H](C=O)[C@@H](O)[C@H](O)[C@H](O)CO [Streptozotocin (Zanosar)] + C=CCn1c(=O)c2cnc(Nc3ccc(N4CCN(C)CC4)cc3)nc2n1-c1cccc(C(C)(C)O)n1 [MK1775]	inactive: 0.0584
Cn1cc(C2=C(c3ccc(Cl)cc3Cl)C(=O)NC2=O)c2ccccc21 + C=CCn1c(=O)c2cnc(Nc3ccc(N4CCN(C)CC4)cc3)nc2n1-c1cccc(C(C)(C)O)n1 [MK1775]	inactive: -0.365
CC(N)(C(=O)O)c1ccc(C(=O)O)cc1 (stereo not drawn) [(?)-alpha-Methyl-4-carboxyphenylglycine] + C=CCn1c(=O)c2cnc(Nc3ccc(N4CCN(C)CC4)cc3)nc2n1-c1cccc(C(C)(C)O)n1 [MK1775]	inactive: -0.65
CC#CCOC(=O)c1c(C)nc2sc3c(c2c1N)CCC(O)C3 (centres undefined) + C=CCn1c(=O)c2cnc(Nc3ccc(N4CCN(C)CC4)cc3)nc2n1-c1cccc(C(C)(C)O)n1 [MK1775]	inactive: -1.81
Cn1c(=O)c2[nH]c(-c3ccc(S(=O)(=O)O)cc3)nc2n(C)c1=O [8-(p-Sulfophenyl)theophylline] + C=CCn1c(=O)c2cnc(Nc3ccc(N4CCN(C)CC4)cc3)nc2n1-c1cccc(C(C)(C)O)n1 [MK1775]	inactive: -0.381
C[C@@H]1O[C@@H]1P(=O)(O)O [Phosphomycin disodium] + C=CCn1c(=O)c2cnc(Nc3ccc(N4CCN(C)CC4)cc3)nc2n1-c1cccc(C(C)(C)O)n1 [MK1775]	inactive: -0.228
C[C@]12C=CC(=O)C=C1CC[C@@H]1C2=CC[C@]2(C)[C@@H](C(=O)CN3CCN(c4cc(N5CCCC5)nc(N5CCCC5)n4)CC3)CC[C@@H]12 + C=CCn1c(=O)c2cnc(Nc3ccc(N4CCN(C)CC4)cc3)nc2n1-c1cccc(C(C)(C)O)n1 [MK1775]	inactive: 0.367
NC(=O)c1cc[n+](CC2=C(C(=O)O)N3C(=O)[C@@H](NC(=O)C(c4ccccc4)S(=O)(=O)[O-])[C@H]3SC2)cc1 (some centres undefined) [Cefsulodin sodium salt hydrate] + C=CCn1c(=O)c2cnc(Nc3ccc(N4CCN(C)CC4)cc3)nc2n1-c1cccc(C(C)(C)O)n1 [MK1775]	inactive: 0.518
